From paper doi:10.1101/2021.11.13.468331 (bioRxiv, 2021)
Where two headings read alike, the source gives them in different places. No constants are given. Whether binding was seen depends on the method and setting. For some assays here: In cells and extracts the contact can be indirect. Some binding calls cover weakened binding; strength is not graded here. For some assays here: Tags and fused reporters may be left off the sequences shown. Blank lines part the entries; values can stand above or below the molecule they belong to.

The chains behind the UniProt entries cited, without tags or fusion partners. Where a name states a change or a piece, a line headed by the entry shows the natural chain unless it says otherwise.
UniProt P56395, whole entry: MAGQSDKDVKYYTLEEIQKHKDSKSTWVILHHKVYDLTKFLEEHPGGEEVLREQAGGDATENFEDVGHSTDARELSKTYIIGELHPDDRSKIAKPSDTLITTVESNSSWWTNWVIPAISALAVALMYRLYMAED

Columns and labels:
[1] = target: T1, SCD1-GFP (stearoyl-CoA desaturase 1 with a C-terminal GFP tag) (mouse) (UniProt P13516); assay: co-IP
T1 sequence: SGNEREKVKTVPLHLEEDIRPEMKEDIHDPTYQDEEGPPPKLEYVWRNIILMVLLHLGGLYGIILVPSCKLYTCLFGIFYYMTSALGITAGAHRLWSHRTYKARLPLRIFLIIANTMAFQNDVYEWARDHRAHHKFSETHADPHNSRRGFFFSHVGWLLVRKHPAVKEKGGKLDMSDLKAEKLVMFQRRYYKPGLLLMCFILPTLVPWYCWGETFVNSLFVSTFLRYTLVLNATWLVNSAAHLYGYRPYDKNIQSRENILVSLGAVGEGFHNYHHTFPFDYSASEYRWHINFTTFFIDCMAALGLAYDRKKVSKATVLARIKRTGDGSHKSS

[2] = target: soluble domain of cyt b5 (4 - 89), E43A (mouse) (UniProt P56395); assay: BLI
[3] = target: soluble domain of cyt b5 (4 - 89), E49A (mouse) (UniProt P56395); assay: BLI
[4] = target: T2, SCD1, purified as an individual protein (mouse) (UniProt P13516); assay: SEC
T2 sequence: T1 sequence

[5] = target: T1, SCD1-GFP (stearoyl-CoA desaturase 1 with a C-terminal GFP tag) (mouse); assay: co-IP; remark: listed apart in the source
[6] = target: Myc-cyt b5 (cytochrome b5 with an N-terminal Myc tag) (mouse) (UniProt P56395); assay: co-IP

Molecule: Myc-cyt b5 (cytochrome b5 with an N-terminal Myc tag) (from UniProt P56395 1-134)
binding [1]: binds

B3: HA-b5R (cytochrome b5 reductase with an N-terminal HA tag) (enzyme, UniProt Q9DCN2 1-301)
chain: MGAQLSTLSHVVLSPVWFIYSLFMKLFQRSTPAITLENPDIKYPLRLIDKEVISPDTRRFRFALPSPQHILGLPIGQHIYLSTRIDGNLVIRPYTPVSSDDDKGFVDLVVKVYFKDTHPKFPAGGKMSQYLENMKIGDTIEFRGPNGLLVYQGKGKFAIRADKKSNPVVRTVKSVGMIAGGTGITPMLQVIRAVLKDPNDHTVCYLLFANQSEKDILLRPELEELRNEHSARFKLWYTVDKAPDAWDYSQGFVNEEMIRDHLPTPGEEPLILMCGPPPMIQFACLPNLERVGHPKERCFTF
binding [5]: binds weakly
binding [6]: binds

The next lines start with the values.

binding [2]: binds
binding [3]: binds
B1: SCD1, purified as an individual protein (enzyme, UniProt P13516 24-355)
chain: T1 sequence

binding [2]: binds weakly
binding [3]: binds weakly
binding [4]: no binding
B2: soluble domain of b5R (24 - 301) (domain or fragment, UniProt Q9DCN2 24-301)
chain: MKLFQRSTPAITLENPDIKYPLRLIDKEVISPDTRRFRFALPSPQHILGLPIGQHIYLSTRIDGNLVIRPYTPVSSDDDKGFVDLVVKVYFKDTHPKFPAGGKMSQYLENMKIGDTIEFRGPNGLLVYQGKGKFAIRADKKSNPVVRTVKSVGMIAGGTGITPMLQVIRAVLKDPNDHTVCYLLFANQSEKDILLRPELEELRNEHSARFKLWYTVDKAPDAWDYSQGFVNEEMIRDHLPTPGEEPLILMCGPPPMIQFACLPNLERVGHPKERCFTF
